Assay results published in patent US10751381B2, “Composition for preventing, relieving or treating colitis, containing complex extracts” (UNIVERSITY-INDUSTRY COOPERATION GROUP OF KYUNG HEE …, priority 2013, dated 2020).
For at least one compound, name, drawing or mass did not settle the structure.

Tests used:
[1] = tested on: model animals with acute colitis induced by TNBS; experiment: Acute colitis induced by TNBS in mice, primary experiment: weight change, colon appearance score, colon length; type: in vivo, mice (C57BL/6); settings: 10 and 20 mg/mouse kg; FIGS. 2 to 4
Method: All the mice were bred under the controlled environmental conditions of 50±10% of humidity at a temperature of 20° C. to 22° C., and the lighting was provided by repeatedly turning on for 12 hours followed by turning off for 12 hours. A feed for a standard experiment (Samyang, Korea) was used as a feed, and ad libitum access to water was allowed. In all experiments, each group consisted of 6 mice. […] Meanwhile, for the normal group, 0.1 mL of normal saline solution was orally administered. Subsequently, from the following day, the sample dissolved in normal saline solution was orally administered at a predetermined volume once daily for 3 days. […] In this case, as a drug sample, the experiments using the butanol-soluble fraction of the Anemarrhena asphodeloides Bunge extract, mangiferin, and a combined extract were separately performed with time intervals, respectively, and the effects of the drug samples on preventing or treating colitis were reasonably analyzed based on the group supplied with normal saline solution instead of a specific drug in the model animals not treated with TNBS, for each of the experiments. The sample administration to the model animals with colitis induced by TNBS was stopped, and on the following day, the weight of the experimental animals was measured, and the measured weight was compared with the initial weight to calculate the amount of change in weight. […]

[2] = tested on: proinflammatory cytokines (IL-1β, IL-6, TNF-α) and anti-inflammatory cytokine (IL-10); experiment: Proinflammatory and anti-inflammatory cytokine expression in colon tissue, TNBS acute colitis (figures, results in words); type: in vivo, mice (C57BL/6); settings: 10 and 20 mg/mouse kg, in a dose-dependent manner, FIGS. 7 to 9

SMILES: O=c1c2cc(O)c(O)cc2oc2cc(O)c([C@@H]3O[C@H](CO)[C@@H](O)[C@H](O)[C@H]3O)c(O)c12 [mangiferin]
- effect on acute colitis induced by TNBS (weight change, score on external appearance of colon, colon length, MPO activity) [1]: alleviating or improving acute colitis induced by TNBS in a dose-dependent manner
- expression amount of IL-1β, IL-6, and TNF-α (proinflammatory cytokines) in colon tissues [2]: decreased
- expression amount of IL-10 (anti-inflammatory cytokine) in colon tissues [2]: increased
